Reference: the supplement of paper PMC9015667
Counter-ions that a name gives are not always drawn. The list shows a part of the results. Many values rest on one well or one pass, so single values are uncertain.

Test system: UACC62P (parental melanoma line)
Test: reduction in cell viability relative to untreated/vehicle; higher = more growth inhibition
Settings: 200 nM; 72 h

SMILES	reduction in cell viability
CN1CCN(c2c(F)cc3c(=O)c(C(=O)O)cn(CCF)c3c2F)CC1 [Fleroxacin]	< 0%
COc1cccc2cc(-c3nc([C@H]4CC[C@H](C(=O)O)CC4)n4ncnc(N)c34)[nH]c12	7.78%
O=c1c(O)c(-c2ccc(O)c(O)c2)oc2cc(O)cc(O)c12 [Quercetine]	< 0%
NCC(=O)Nc1ccc(-n2nc(C(F)(F)F)cc2-c2ccc3c(ccc4ccccc43)c2)cc1	< 0%
CC(C)C[C@@H](N)[C@H](O)C(=O)N[C@H](C(=O)N[C@H](C(=O)N[C@@H](CC(=O)O)C(=O)O)C(C)C)C(C)C [Amastatin]	< 0%
C/C=C/C[C@@H](C)C(=O)[C@H]1C(=O)N[C@@H](C(C)C)C(=O)N(C)CC(=O)N(C)[C@@H](CC(C)C)C(=O)N[C@@H](C(C)C)C(=O)N(C)[C@@H](CC(C)C)C(=O)N[C@@H](C)C(=O)N[C@H](C)C(=O)N(C)[C@@H](CC(C)C)C(=O)N(C)[C@@H](CC(C)C)C(=O)N(C)[C@@H](C(C)C)C(=O)N1C [Valspodar]	< 0%
CCOC(=O)N1CCN(/[N+]([O-])=N/Oc2cc(O/N=[N+](\[O-])N3CCN(C(=O)OCC)CC3)c([N+](=O)[O-])cc2[N+](=O)[O-])CC1 [Double JS-K]	< 0%
O=c1[nH]cc(F)c(=O)[nH]1 [Fluorouracil]	5.52%
COc1ccc(Cn2ccc3ccc(C(=O)NO)cc32)cc1	< 0%
C[C@@H]1COC(Nc2ccc3ncnc(Nc4ccc(OCc5nccs5)c(Cl)c4)c3c2)=N1 [Varlitinib tosylate]	< 0%
O=C(Nc1ccccc1Br)N[C@@H]1CCN(c2ccc(C(F)(F)F)cn2)C1	6.05%
C[C@H](NC(=O)[C@@H](O)c1cc(F)cc(F)c1)C(=O)N[C@@H]1C(=O)N(C)c2ccccc2-c2ccccc21	< 0%
COc1cc2c(Nc3ccc(Cl)c(Cl)c3F)ncnc2cc1OC[C@@H]1C[C@@H]2CN(C)C[C@@H]2C1	< 0%
CC(C)Oc1ccc2c(=O)c(-c3ccccc3)coc2c1 [Ipriflavone]	6.86%
COc1cc(CNC(=O)CCCC/C=C/C(C)C)ccc1O [Capsaicin]	< 0%
COc1ccc2c(c1)c(CC(=O)O)c(C)n2C(=O)c1ccc(Cl)cc1 [Indomethacin]	2%
N.N.O=C([O-])C[O-].[Pt+2] [Nedaplatin]	< 0%
Cc1cc(OCCCS(C)(=O)=O)cc(C)c1-c1cccc(COc2ccc3c(c2)OC[C@H]3CC(=O)O)c1	< 0%
CC(C)c1onc(-c2c(Cl)cccc2Cl)c1COc1ccc(/C=C/c2cccc(C(=O)O)c2)c(Cl)c1	< 0%
COc1ccc(S(=O)(=O)Nc2cccnc2Nc2ccc(O)cc2)cc1	52.4%
CCCCc1ncc(/C=C(\Cc2cccs2)C(=O)O)n1Cc1ccc(C(=O)O)cc1 [Eprosartan mesylate]	< 0%
CC(C)(C)c1cc(C(C)(C)C)c(NC(=O)c2c[nH]c3ccccc3c2=O)cc1O [Ivacaftor]	< 0%
CC(C)Oc1cc(Nc2nc(N[C@@H](C)c3ccc(F)cn3)ncc2Cl)n[nH]1	< 0%
CC(C[N+](C)(C)C)OC(N)=O (centres undefined) [Bethanechol chloride]	1.63%
CS(=O)(=O)c1cccc(CNc2nc(Nc3ccc4c(c3)CCC(=O)N4)ncc2C(F)(F)F)c1	< 0%
Cn1c(N2CCCCS2(=O)=O)nc(C(=O)NCc2ccc(F)cc2)c(O)c1=O	< 0%
O=C(Nc1cccc(C(F)(F)F)c1)Nc1cc(S(=O)(=O)NC2CC2)ccc1-c1ccsc1	< 0%
COc1ccc(-c2cc3nccn3c(Nc3ncccc3C(N)=O)n2)cc1OC	5.78%
CC(=O)NC[C@H]1CN(c2ccc(N3CCOCC3)c(F)c2)C(=O)O1 [Linezolid]	< 0%

Test system: UACC62R (matched melanoma line resistant to BRAF inhibitors)
Test: as above
Settings: 200 nM; 72 h

SMILES	reduction in cell viability
Cc1c(C)n(Cc2ccc(-c3ccccc3C(=O)O)cc2)c2ccc(C(=O)N[C@@H](C)c3ccc([N+](=O)[O-])cc3)cc12	< 0%
O=c1cc(CN2CCOCC2)occ1OCCCCCSc1ccnc2cc(C(F)(F)F)ccc12	< 0%
O=c1ncn2nc(Sc3ccc(F)cc3F)ccc2c1-c1c(Cl)cccc1Cl	< 0%
CO[C@H]1/C=C/O[C@@]2(C)Oc3c(C)c(O)c4c(c3C2=O)C2=NC3(CCN(CC(C)C)CC3)NC2=C(NC(=O)/C(C)=C\C=C\[C@H](C)[C@H](O)[C@@H](C)[C@@H](O)[C@@H](C)[C@H](OC(C)=O)[C@@H]1C)C4=O [Rifabutin]	< 0%
O=C(O)C1=CO[C@@H](O[C@@H]2O[C@H](CO)[C@@H](O)[C@H](O)[C@H]2O)[C@@H]2C(CO)=CC[C@H]12 [Geniposidic acid]	< 0%
O=c1c(-c2ccc(O)cc2)coc2cc(O)cc(O)c12 [Genistein]	< 0%
CC(CCc1ccc(O)cc1)NCCc1ccc(O)c(O)c1 (centres undefined) [Dobutamine]	< 0%
C=C1C(=O)[C@]23[C@H](O)[C@H]1CC[C@H]2[C@@]12CO[C@]3(O)[C@@H](O)[C@@H]1C(C)(C)CC[C@@H]2O [Oridonin]	< 0%
CC(C)OC(=O)C(C(=O)OC(C)C)=C1SC=CS1 [Malotilate]	< 0%
COc1cc2c(cc1-c1c(C)noc1C)ncc1[nH]c(=O)n([C@H](C)c3ccccn3)c12	9.61%
Oc1ccc([C@@H]2Oc3ccc(O)cc3[C@@H]3CCC[C@@H]32)cc1 [Erteberel]	< 0%
CN1CCN(c2c(F)cc3c(=O)c(C(=O)O)cn(CCF)c3c2F)CC1 [Fleroxacin]	< 0%
COc1cccc2cc(-c3nc([C@H]4CC[C@H](C(=O)O)CC4)n4ncnc(N)c34)[nH]c12	< 0%
O=c1c(O)c(-c2ccc(O)c(O)c2)oc2cc(O)cc(O)c12 [Quercetine]	< 0%
NCC(=O)Nc1ccc(-n2nc(C(F)(F)F)cc2-c2ccc3c(ccc4ccccc43)c2)cc1	< 0%
CC(C)C[C@@H](N)[C@H](O)C(=O)N[C@H](C(=O)N[C@H](C(=O)N[C@@H](CC(=O)O)C(=O)O)C(C)C)C(C)C [Amastatin]	< 0%
C/C=C/C[C@@H](C)C(=O)[C@H]1C(=O)N[C@@H](C(C)C)C(=O)N(C)CC(=O)N(C)[C@@H](CC(C)C)C(=O)N[C@@H](C(C)C)C(=O)N(C)[C@@H](CC(C)C)C(=O)N[C@@H](C)C(=O)N[C@H](C)C(=O)N(C)[C@@H](CC(C)C)C(=O)N(C)[C@@H](CC(C)C)C(=O)N(C)[C@@H](C(C)C)C(=O)N1C [Valspodar]	< 0%
CCOC(=O)N1CCN(/[N+]([O-])=N/Oc2cc(O/N=[N+](\[O-])N3CCN(C(=O)OCC)CC3)c([N+](=O)[O-])cc2[N+](=O)[O-])CC1 [Double JS-K]	< 0%
O=c1[nH]cc(F)c(=O)[nH]1 [Fluorouracil]	< 0%
COc1ccc(Cn2ccc3ccc(C(=O)NO)cc32)cc1	< 0%

SMILES	reduction in cell viability
C[C@@H]1COC(Nc2ccc3ncnc(Nc4ccc(OCc5nccs5)c(Cl)c4)c3c2)=N1 [Varlitinib tosylate]	< 0%
O=C(Nc1ccccc1Br)N[C@@H]1CCN(c2ccc(C(F)(F)F)cn2)C1	< 0%
C[C@H](NC(=O)[C@@H](O)c1cc(F)cc(F)c1)C(=O)N[C@@H]1C(=O)N(C)c2ccccc2-c2ccccc21	< 0%
COc1cc2c(Nc3ccc(Cl)c(Cl)c3F)ncnc2cc1OC[C@@H]1C[C@@H]2CN(C)C[C@@H]2C1	< 0%
CC(C)Oc1ccc2c(=O)c(-c3ccccc3)coc2c1 [Ipriflavone]	< 0%
COc1cc(CNC(=O)CCCC/C=C/C(C)C)ccc1O [Capsaicin]	< 0%
COc1ccc2c(c1)c(CC(=O)O)c(C)n2C(=O)c1ccc(Cl)cc1 [Indomethacin]	< 0%
N.N.O=C([O-])C[O-].[Pt+2] [Nedaplatin]	< 0%
Cc1cc(OCCCS(C)(=O)=O)cc(C)c1-c1cccc(COc2ccc3c(c2)OC[C@H]3CC(=O)O)c1	< 0%
CC(C)c1onc(-c2c(Cl)cccc2Cl)c1COc1ccc(/C=C/c2cccc(C(=O)O)c2)c(Cl)c1	< 0%
COc1ccc(S(=O)(=O)Nc2cccnc2Nc2ccc(O)cc2)cc1	87.8%
CCCCc1ncc(/C=C(\Cc2cccs2)C(=O)O)n1Cc1ccc(C(=O)O)cc1 [Eprosartan mesylate]	< 0%
CC(C)(C)c1cc(C(C)(C)C)c(NC(=O)c2c[nH]c3ccccc3c2=O)cc1O [Ivacaftor]	< 0%
CC(C)Oc1cc(Nc2nc(N[C@@H](C)c3ccc(F)cn3)ncc2Cl)n[nH]1	< 0%
CC(C[N+](C)(C)C)OC(N)=O (centres undefined) [Bethanechol chloride]	< 0%
CS(=O)(=O)c1cccc(CNc2nc(Nc3ccc4c(c3)CCC(=O)N4)ncc2C(F)(F)F)c1	< 0%
Cn1c(N2CCCCS2(=O)=O)nc(C(=O)NCc2ccc(F)cc2)c(O)c1=O	< 0%
O=C(Nc1cccc(C(F)(F)F)c1)Nc1cc(S(=O)(=O)NC2CC2)ccc1-c1ccsc1	< 0%
COc1ccc(-c2cc3nccn3c(Nc3ncccc3C(N)=O)n2)cc1OC	< 0%
CC(=O)NC[C@H]1CN(c2ccc(N3CCOCC3)c(F)c2)C(=O)O1 [Linezolid]	< 0%
